Values from PubChem BioAssay AID652243 (Drosophila RNAi Screening Center, 2013)
Test: 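Knock-downs that decrease or increase androgen receptor reporter signal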 (primary screen). System: Drosophila S2R+ cells. Knock-down reagent: long dsRNA against Drosophila genes. Duration: 72 h (48 h, then 24 h hormone). Conditions: synthetic androgen R1881 at 10 nM for 24 h. Read-out: 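Per-well raw luminescence of the androgen-driven firefly reporter and of the Renilla control, two replicates each, without normalisation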. Reading the numbers: firefly reporter light: higher = more light from androgen-responsive reporter; Renilla control light: higher = more constitutive control signal (cell number, transfection). Call rule: 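Across duplicate plates, a knock-down whose log firefly/Renilla ratio shifted a set fold down or up from the GFP/LacZ control mean was a hit; the downward cut appears as both 1.5 and 3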. Calls: active = hit: reporter lowered or raised; inactive = no hit.
The screen tested about 24,000 reagents; below is an unselected part of those with a known target gene and a result. Of all reagents, 246 (1%) were called active. 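Plates not normalised; calls are printed but the firefly/Renilla ratio behind them is not deposited; fold cut for lowering reported inconsistently.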 Raw values vary from plate to plate and are shown uncorrected. The numbers tell different reagents against one gene apart. The record does not give: the amount of reagent.

Gene | dsRNA no. | firefly reporter light, replicate 1 | firefly reporter light, replicate 2 | Renilla control light, replicate 1 | Renilla control light, replicate 2 | outcome
dmGlut (Dietary and metabolic glutamate transporter) | 1 | 6.58e5 | 9.68e5 | 1.36e6 | 1.94e6 | inactive
dmGlut (Dietary and metabolic glutamate transporter) | 2 | 4.73e5 | 3.09e5 | 9.81e5 | 8.15e5 | inactive
CG30419 | 1 | 2.69e5 | 2.74e5 | 2.35e6 | 2.37e6 | inactive
CG30419 | 2 | 3.01e5 | 3.66e5 | 2.38e6 | 2.39e6 | inactive
CG30419 | 3 | 4.89e5 | 5.76e5 | 1.26e6 | 1.52e6 | inactive
CG31106 | 1 | 1.21e5 | 1.59e5 | 2.13e6 | 1.70e6 | inactive
Set1 (SET domain containing 1) | 1 | 6.99e5 | 6.69e5 | 1.37e6 | 1.50e6 | inactive
CG7120 | 1 | 2.17e5 | 2.00e5 | 2.79e6 | 1.80e6 | inactive
Ho (Heme oxygenase) | 1 | 87619 | 66066 | 5.07e5 | 5.93e5 | inactive
SMC5 (Structural maintenance of chromosomes 5) | 1 | 72577 | 66985 | 4.68e5 | 4.87e5 | inactive
axed (axundead) | 1 | 1.60e5 | 1.07e5 | 3.01e5 | 1.48e5 | inactive
axed (axundead) | 2 | 92885 | 74349 | 1.73e6 | 9.97e5 | inactive
tw (twisted) | 1 | 54780 | 20431 | 2.18e5 | 2.59e5 | inactive
CG15873 | 1 | 3.62e5 | 3.88e5 | 2.31e6 | 2.45e6 | inactive
CG32847 | 1 | 7.03e5 | 7.63e5 | 2.42e6 | 2.64e6 | inactive
Dnai2 (dynein, axonemal, intermediate chain 2) | 1 | 2.94e5 | 1.92e5 | 2.71e6 | 1.76e6 | inactive
Gk2 (Glycerol kinase 2) | 1 | 8.65e5 | 8.97e5 | 1.71e6 | 1.37e6 | inactive
Gk2 (Glycerol kinase 2) | 2 | – | – | – | – | inactive
Fife | 1 | 76941 | 67098 | 1.62e6 | 1.53e6 | inactive
Fife | 2 | 1.07e5 | 1.06e5 | 1.23e6 | 1.02e6 | inactive
Fife | 3 | 9.98e5 | 9.28e5 | 1.13e6 | 1.20e6 | inactive
Fife | 4 | 6.92e5 | 6.24e5 | 7.09e5 | 9.57e5 | inactive
RpS3 (Ribosomal protein S3) | 1 | 1.33e5 | 1.55e5 | 1.47e6 | 1.42e6 | inactive
CG42671 | 1 | 77110 | 26082 | 7.27e5 | 8.12e5 | inactive
CG42671 | 2 | 2.96e5 | 3.04e5 | 2.71e6 | 2.18e6 | inactive
CG42671 | 3 | 3.82e5 | 4.54e5 | 1.93e6 | 1.92e6 | inactive
CG42671 | 4 | 7.61e5 | 7.88e5 | 1.66e6 | 2.12e6 | inactive
CG15221 | 1 | 4.84e5 | 4.38e5 | 4.78e6 | 4.35e6 | inactive
vn (vein) | 1 | 6.28e5 | 6.61e5 | 8.48e5 | 9.83e5 | inactive
vn (vein) | 2 | 3.36e5 | 3.87e5 | 3.68e5 | 4.65e5 | inactive
CG4480 | 1 | 1.63e5 | 1.24e5 | 1.77e6 | 1.57e6 | inactive
CG11655 | 1 | 3.80e5 | 3.88e5 | 2.86e6 | 2.75e6 | inactive
GlcAT-I (Glucuronyltransferase I) | 1 | 5.18e5 | 5.85e5 | 1.18e6 | 9.77e5 | inactive
Coa7 (Cytochrome c oxidase assembly factor 7) | 1 | 1.39e5 | 1.55e5 | 3.36e5 | 3.24e5 | inactive
Coa7 (Cytochrome c oxidase assembly factor 7) | 2 | 1.98e5 | 2.13e5 | 6.91e5 | 7.27e5 | inactive

Continued, starting with the last 8 of the part before.
Gene | dsRNA no. | firefly reporter light, replicate 1 | firefly reporter light, replicate 2 | Renilla control light, replicate 1 | Renilla control light, replicate 2 | outcome
CG15221 | 1 | 4.84e5 | 4.38e5 | 4.78e6 | 4.35e6 | inactive
vn (vein) | 1 | 6.28e5 | 6.61e5 | 8.48e5 | 9.83e5 | inactive
vn (vein) | 2 | 3.36e5 | 3.87e5 | 3.68e5 | 4.65e5 | inactive
CG4480 | 1 | 1.63e5 | 1.24e5 | 1.77e6 | 1.57e6 | inactive
CG11655 | 1 | 3.80e5 | 3.88e5 | 2.86e6 | 2.75e6 | inactive
GlcAT-I (Glucuronyltransferase I) | 1 | 5.18e5 | 5.85e5 | 1.18e6 | 9.77e5 | inactive
Coa7 (Cytochrome c oxidase assembly factor 7) | 1 | 1.39e5 | 1.55e5 | 3.36e5 | 3.24e5 | inactive
Coa7 (Cytochrome c oxidase assembly factor 7) | 2 | 1.98e5 | 2.13e5 | 6.91e5 | 7.27e5 | inactive
Lst (Limostatin) | 1 | 1.43e5 | 1.67e5 | 2.41e6 | 2.41e6 | inactive
Lst (Limostatin) | 2 | 2.93e5 | 4.45e5 | 9.36e5 | 1.03e6 | inactive
wun2 (wunen-2) | 1 | 3.10e5 | 2.08e5 | 1.94e6 | 1.16e6 | inactive
wun2 (wunen-2) | 2 | – | – | – | – | inactive
wun2 (wunen-2) | 3 | – | – | – | – | inactive
CG15629 | 1 | 1.57e5 | 86000 | 6.80e5 | 5.99e5 | inactive
CG15629 | 2 | 4.53e5 | 3.78e5 | 8.68e5 | 8.68e5 | inactive
Idgf6 (Imaginal disc growth factor 6) | 1 | 8.56e5 | 7.99e5 | 1.52e6 | 1.41e6 | inactive
Idgf6 (Imaginal disc growth factor 6) | 2 | 1.01e6 | 6.33e5 | 7.23e5 | 4.64e5 | inactive
CG13014 | 1 | 4.40e5 | 4.38e5 | 2.57e6 | 2.56e6 | inactive
CG13014 | 2 | 8.50e5 | 1.02e6 | 8.96e5 | 8.30e5 | inactive
CG13014 | 3 | 8.53e5 | 9.10e5 | 1.37e6 | 1.40e6 | inactive
CG10343 | 1 | 1.71e5 | 1.78e5 | 1.77e6 | 1.77e6 | inactive
CG10343 | 2 | 2.00e5 | 1.93e5 | 4.30e5 | 4.49e5 | inactive
Taf11 (TBP-associated factor 11) | 1 | 1.47e5 | 54176 | 1.56e6 | 6.77e5 | inactive
CG14106 | 1 | 1.72e5 | 1.34e5 | 2.41e6 | 2.03e6 | inactive
CG10814 | 1 | 1.88e6 | 1.66e6 | 2.67e6 | 2.74e6 | inactive
CG33689 | 1 | 9.64e5 | 7.82e5 | 2.03e6 | 1.57e6 | inactive
CG33784 | 1 | 9.08e5 | 8.48e5 | 1.44e6 | 1.80e6 | inactive
gammaCOP (Coat Protein (coatomer) gamma) | 1 | 2.07e5 | 2.13e5 | 1.35e6 | 2.36e6 | inactive
gammaCOP (Coat Protein (coatomer) gamma) | 2 | 6.29e5 | 3.75e5 | 1.47e6 | 1.65e6 | inactive
Opa1 (Optic atrophy 1) | 1 | 1.27e6 | 6.22e5 | 1.57e6 | 8.58e5 | inactive
Opa1 (Optic atrophy 1) | 2 | 3.22e5 | 4.21e5 | 9.33e5 | 9.03e5 | inactive
